Measurements published in US20170202915A1 (TUFTS UNIVERSITY, published 2017).
Results are given in words; binding and its absence hold for the method and conditions named. Each block holds one molecule with its values, some of them ahead of it.

Amino acid sequences for entries named in this document (tags omitted). A change or cut given only in a name is not applied to a line headed by its entry. Residues count along the entry.
UniProt P49767: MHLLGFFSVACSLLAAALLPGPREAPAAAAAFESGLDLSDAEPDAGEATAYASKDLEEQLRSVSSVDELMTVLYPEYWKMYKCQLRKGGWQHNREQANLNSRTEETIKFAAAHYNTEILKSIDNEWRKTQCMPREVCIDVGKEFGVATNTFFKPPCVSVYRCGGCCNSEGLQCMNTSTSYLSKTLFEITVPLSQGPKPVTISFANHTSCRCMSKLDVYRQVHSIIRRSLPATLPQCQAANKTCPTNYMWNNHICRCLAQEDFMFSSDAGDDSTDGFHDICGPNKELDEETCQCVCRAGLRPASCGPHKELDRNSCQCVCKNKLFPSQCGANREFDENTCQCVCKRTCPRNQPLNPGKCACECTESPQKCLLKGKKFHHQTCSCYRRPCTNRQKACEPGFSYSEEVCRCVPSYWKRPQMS
UniProt P47929: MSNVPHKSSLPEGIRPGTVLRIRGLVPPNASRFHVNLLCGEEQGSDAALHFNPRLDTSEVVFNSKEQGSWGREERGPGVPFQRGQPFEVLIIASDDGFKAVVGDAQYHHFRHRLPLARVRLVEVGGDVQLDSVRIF
UniProt P09382, residues 2-135: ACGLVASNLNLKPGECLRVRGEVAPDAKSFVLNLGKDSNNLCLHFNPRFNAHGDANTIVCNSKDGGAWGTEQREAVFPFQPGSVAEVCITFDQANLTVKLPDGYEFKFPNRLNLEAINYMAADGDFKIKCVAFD
UniProt P17931, residues 2-250: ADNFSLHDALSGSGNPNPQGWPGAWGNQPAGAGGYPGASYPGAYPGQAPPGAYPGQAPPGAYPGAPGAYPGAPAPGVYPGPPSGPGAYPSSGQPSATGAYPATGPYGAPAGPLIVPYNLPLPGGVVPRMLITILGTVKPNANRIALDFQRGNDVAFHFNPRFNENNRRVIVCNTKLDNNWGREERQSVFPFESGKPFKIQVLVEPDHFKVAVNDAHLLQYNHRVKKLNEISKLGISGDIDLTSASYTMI

Target: VEGF-C (from primary LECs) (UniProt P49767)
Experiment: galectin-agarose pulldown from primary LECs, western blot (FIG. 21A)

Molecule: recombinant galectin-7 (from UniProt P47929 1-136)
binding: no binding

B1: recombinant full-length galectin-8 (other, UniProt O00214 1-317, looked up)
chain: MMLSLNNLQNIIYNPVIPFVGTIPDQLDPGTLIVIRGHVPSDADRFQVDLQNGSSMKPRADVAFHFNPRFKRAGCIVCNTLINEKWGREEITYDTPFKREKSFEIVIMVLKDKFQVAVNGKHTLLYGHRIGPEKIDTLGIYGKVNIHSIGFSFSSDLQSTQASSLELTEISRENVPKSGTPQLRLPFAARLNTPMGPGRTVVVKGEVNANAKSFNVDLLAGKSKDIALHLNPRLNIKAFVRNSFLQESWGEEERNITSFPFSPGMYFEMIIYCDVREFKVAVNGVHSLEYKHRFKELSSIDTLEINGDIHLLEVRSW
notes: mature; Tandem-repeat lectin with an N-CRD and a C-CRD; also called Gal-8; exogenous Gal-8
binding: no binding

Further lines, results first:

binding: no binding
Molecule: recombinant galectin-1 (from UniProt P09382 2-135)

binding: no binding
Molecule: recombinant galectin-3 (from UniProt P17931 2-250)
